Source: PubChem BioAssay AID540256 (National Center for Advancing Translational Sciences (NCATS), 2011)
Out of some 300,000 compounds screened, about 3,700 (1.2%) were called active. Inconclusive results, whose numbers are uncertain, are shown with a selection of clear calls. The call rests on the fitted dose curve; tested in HEK293 cells. Potencies of inconclusive entries are doubtful fits and often do not repeat.
On the % scale 0 is the no-effect control and ±100 the full control effect; potency means the concentration at half of the fitted maximal effect.

Test: qHTS for Inhibitors of binding or entry into cells for Lassa Virus; further: nearly all actives have a fitted effect of over 50% in size
Conditions: Lassa virus pseudotype entry inhibition, cell reporter; activity change, negative = inhibition: at 37.9 µM (top of the series) unless noted
For `CCOc1ccc(CCNC(=O)CN2CCN(Cc3ccccc3F)C2=O)cc1OCC`, the Potency was inconclusive: 2.31 µM [inhibitor, single point].
For `Cc1ccc(C)c(OCC(=O)NC2CCCCCC2)c1`, the “activity change, negative = inhibition” value was inactive: 0.767%.
With `O=C(Nc1cccc(-c2ccc(N3CCCCC3)nn2)c1)c1ccco1` the Potency was inconclusive: 8.91 µM [inhibitor, single point].
For `Cc1ccc(-n2c(C)cc(C(=O)OCC(=O)N3CCOCC3)c2C)cc1`, the Potency was inconclusive: 14.1 µM [inhibitor, single point].
For `C/C(=N/N1CCN(c2ccccn2)CC1)c1cccc([N+](=O)[O-])c1`, the Potency was inconclusive: 0.112 µM [inhibitor, partial curve, poor fit].
For `CCc1ccc(NC(=O)C(=O)NCCc2sc3nc(-c4ccc(OC)cc4)nn3c2C)cc1`, the “activity change, negative = inhibition” value was inactive: -17.1% [at 46.1 µM].
For `CC(C)(C)N(Cc1nc(-c2ccccc2)no1)C(=O)c1ccc2c(c1)OCO2`, the Potency was inconclusive: 35.5 µM [inhibitor, single point].
In the case of `COc1ccc(N2CCN(Cc3nnnn3C3CCCCC3)CC2)cc1`, the Potency is reported as inconclusive: 6.51 µM [inhibitor, partial curve, poor fit].
In the case of `Clc1ccc2[nH]c3c(NCCN4CCOCC4)ncnc3c2c1`, the Potency is reported as inconclusive: 12.6 µM [activator, single point].
In the case of `Cc1cc(N/C(=N/S(=O)(=O)c2cc(F)ccc2F)c2ccccc2)n(-c2ccccc2)n1`, the Potency is reported as inconclusive: 25.9 µM [inhibitor, single point].
For `CCn1c(=NC(=O)CCS(=O)(=O)c2ccccc2)sc2cccc(OC)c21`, the Potency was inconclusive: 11.2 µM [inhibitor, partial curve, poor fit].
In the case of `O=C(NNC(=S)NCc1ccccc1)c1ccc2c(c1)OCO2`, the “activity change, negative = inhibition” value is reported as inactive: 15.2%.
For `COc1ccc(/C=N/NC(=O)c2nc(-c3ccccc3)n(-c3ccccc3)n2)c(O)c1`, the Potency was inconclusive: 3.98 µM [inhibitor, partial curve, poor fit].
With `COc1ccc2oc(C(=O)OCC(=O)NCc3ccco3)c(C)c2c1` the Potency was inconclusive: 35.5 µM [inhibitor, single point].
In the case of `COc1cccc(NC(=O)c2ccccc2NS(C)(=O)=O)c1`, the Potency is reported as inconclusive: 29.1 µM [activator, single point].
For `Cc1ccc2nc(C)cc(C(=O)N3CCCC(N4CCN(c5ccccc5C)CC4)C3)c2c1` (stereo not drawn), the “activity change, negative = inhibition” value was inactive: -21.8%.
With `CCc1cccc(CC)c1NC(=O)COC(=O)c1ccccc1-c1nc2ccccc2s1` the “activity change, negative = inhibition” value was inactive: 4.89%.
In the case of `Cc1cc(C)c(S(=O)(=O)Nc2ccc3[nH]c(=O)[nH]c3c2)c(C)c1`, the Potency is reported as inconclusive: 4.11 µM [inhibitor, partial curve, poor fit].
